Experimental data from PubChem BioAssay AID1671190 (National Center for Advancing Translational Sciences (NCATS), 2021).
Out of some 580,000 compounds screened, about 6,100 (1.1%) were called active. This list was built around the results that the source calls inconclusive (neither active nor inactive); the mix of calls is not that of the screen. Calls follow the shape of the dose curve; as a rule, active = well fitted inhibition curve with a large enough effect; inconclusive = small, poorly fitted or top-dose-only effect, or another doubt; inactive = no such curve, though single readings can be large or run the other way. Potencies beside an inconclusive call are fits to weak or partial responses and may not hold up.

The chains behind the UniProt entries cited, without tags or fusion partners. Where a name states a change or a piece, a line headed by the entry shows the natural chain unless it says otherwise.
UniProt P18054: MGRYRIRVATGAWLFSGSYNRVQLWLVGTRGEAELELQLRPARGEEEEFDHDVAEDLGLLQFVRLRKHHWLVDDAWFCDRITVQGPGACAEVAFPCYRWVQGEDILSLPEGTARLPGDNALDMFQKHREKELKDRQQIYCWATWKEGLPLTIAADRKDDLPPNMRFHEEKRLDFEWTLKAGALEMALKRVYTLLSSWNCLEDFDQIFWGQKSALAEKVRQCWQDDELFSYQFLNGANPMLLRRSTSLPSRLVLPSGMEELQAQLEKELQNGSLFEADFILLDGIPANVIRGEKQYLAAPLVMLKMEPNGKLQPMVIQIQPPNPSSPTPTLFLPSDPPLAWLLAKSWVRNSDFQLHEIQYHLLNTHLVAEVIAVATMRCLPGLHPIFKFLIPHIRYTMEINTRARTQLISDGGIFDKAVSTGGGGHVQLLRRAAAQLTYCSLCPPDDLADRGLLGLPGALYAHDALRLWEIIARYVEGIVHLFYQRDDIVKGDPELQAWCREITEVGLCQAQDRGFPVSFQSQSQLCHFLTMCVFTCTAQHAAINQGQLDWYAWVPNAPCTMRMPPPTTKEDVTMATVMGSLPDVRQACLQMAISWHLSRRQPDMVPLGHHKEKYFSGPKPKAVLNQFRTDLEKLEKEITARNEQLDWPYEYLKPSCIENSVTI

Biological target: Polyunsaturated fatty acid lipoxygenase ALOX12 (Homo sapiens) (UniProt P18054)
Test: Primary qHTS assay for inhibitors of human arachidonate 12S-lipoxygenase (ALOX12): Round 2
Settings: purified 12hLO, xylenol orange hydroperoxide absorbance; activity change, negative = inhibition: at 108 µM (top of the series) unless noted
Procedure, shortened: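 Purified human 12hLO (150 nM final) in 25 mM Hepes, 0.01% Triton X-100, pH 7.0 was preincubated 15 min at room temperature with compound. Then 40 uM arachidonic acid was added, 30 min. Hydroperoxide was read by Fe-XO absorbance ratio 573/405 nm.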
% is scaled to controls: 0 for no effect and ±100 for the full control effect; potency is read from the fitted curve at half-maximal effect.

| SMILES | Potency | activity change, negative = inhibition |
| --- | --- | --- |
| CCOc1ccc(NC(=O)CCN2C(=S)NC(C)(C)CC2C)cc1 (stereo unspecified) | inconclusive: 50.1 µM [inhibitor, partial curve, poor fit] | – |
| CC(O)CNCCCOc1ccc(Cl)cc1C(C)(C)C (stereo unspecified) | inconclusive: 12.6 µM [inhibitor, partial curve] | – |
| O=C(Nc1nc(-c2ccccc2)nc2ccccc12)c1ccc(F)cc1 | – | inactive: -4.28% |
| CC(=O)c1cc(CC#N)cs1 | inconclusive: 89.1 µM [inhibitor, partial curve, poor fit] | – |
| Oc1ccccc1/C=N/NC(=S)NC1CC2CC1C1C=CCC21 (stereo unspecified) | inconclusive: 44.7 µM [inhibitor, partial curve, poor fit] | – |
| COc1ccc(S(=O)(=O)N2Cc3ccccc3CC2C(=O)O)cc1 (stereo unspecified) | inconclusive: 35.5 µM [inhibitor, partial curve, poor fit] | – |
| O=C(c1cccc(S(=O)(=O)NCc2ccccc2)c1)N1CCN(c2ccc(F)cc2)CC1 | inconclusive: 39.8 µM [inhibitor, partial curve, poor fit] | – |
| O=C(c1cccc(Cl)c1)N1CCC[C@H]1c1nc(-c2ccccc2)no1 | inconclusive: 28.2 µM [inhibitor, full curve] | – |
| CC(Sc1cc(Cl)ccc1Cl)C(=O)NC(C)(C)C (stereo unspecified) | inconclusive: 50.1 µM [inhibitor, partial curve, poor fit] | – |
| Cc1ccc(/C=C(/C#N)C(=O)NC(=O)Oc2ccccc2)cc1 | inconclusive: 7.08 µM [inhibitor, full curve, poor fit] | – |
| CCOC(=O)c1c(N)n(-c2ccc(N)cc2)c2nc3ccccc3nc12 | – | inactive: -21.1% |
| COc1cc(/C=C2\SC(=S)N(Nc3ccccc3)C2=O)cc(OC)c1OC | inconclusive: 10 µM [inhibitor, partial curve, poor fit] | – |
| NC(=S)N/N=C\c1ccc(-c2cccc(Cl)c2Cl)o1 | inconclusive: 17.8 µM [inhibitor, partial curve, poor fit] | – |
| C=CCSc1nc2ccccc2n1S(=O)(=O)c1ccc(Cl)cc1 | inconclusive: 35.5 µM [inhibitor, partial curve, poor fit] | – |
| Cc1cc(C)nc(OC(C(=O)O)C(OCc2ccccc2)(c2ccccc2)c2ccccc2)n1 (stereo unspecified) | inconclusive: 50.1 µM [inhibitor, partial curve, poor fit] | – |
| C/C=C/C=C\C(=O)Nc1cccc(C2=NOC3(C2)C[C@H](C(N)=O)N(C(=O)/C=C/C)C3)c1 (stereo partly specified) | – | inactive: -1.34% |
| COc1ccc2c(c1)/C(=N/OC(=O)c1cc(Cl)ccc1SC)CCC2 | inconclusive: 5.01 µM [inhibitor, full curve, poor fit] | – |
| Cc1ccc(N(Cc2cccs2)C(=O)c2cccs2)cc1 | inconclusive: 89.1 µM [inhibitor, single point] | – |
| CCc1cccc(CC)c1NC(=O)c1ccc(CSc2ccc(C)cc2)cc1 | inconclusive: 100 µM [inhibitor, single point] | – |
| CCCCCCc1nnc(NC(=O)c2ccco2)s1 | – | inactive: 26.9% |
| COc1ccc(C(=O)NCc2ccccc2)cc1Br | – | inactive: -6.03% |

| SMILES | Potency | activity change, negative = inhibition |
| --- | --- | --- |
| COc1ccccc1CC(=O)Nc1ccc(O)cc1C(=O)O | inconclusive: 44.7 µM [inhibitor, partial curve, poor fit] | – |
| Cn1nc2c(c1NC(=O)Cn1nc3c(cc1=O)CCCCC3)CSC2 | inconclusive: 56.2 µM [inhibitor, partial curve] | – |
| O=C(O)C(Cc1c[nH]c2ccccc12)NS(=O)(=O)c1cccc(Cl)c1Cl (stereo unspecified) | – | inactive: 0% |
| CCNC(=S)NNC(=O)c1cccn(Cc2ccc(Cl)cc2Cl)c1=O | inconclusive: 89.1 µM [inhibitor, single point] | – |
| CNC(=O)COC(=O)c1cc(-c2ccc(OC)cc2)nc2ccccc12 | inconclusive: 70.8 µM [inhibitor, partial curve, poor fit] | – |
| O=Cc1c(-c2ccccc2)c(C=O)n2ccccc12 | inconclusive: 56.2 µM [inhibitor, partial curve, poor fit] | – |
| CCCCNC(=O)Cc1csc2nc(C)c(-c3cc(C)n(-c4cccc(Cl)c4)n3)c(=O)n12 | active: 39.8 µM | – |
| COc1ccc(NS(=O)(=O)c2ccc3c(c2)CC(C)N3C(=O)C2CCC2)cc1OC (stereo unspecified) | – | inactive: -0.652% |
| CN(C)N=Nc1nc2c(c(=O)n(C)c(=O)n2C)n1C | inconclusive: 79.4 µM [inhibitor, single point] | – |
| Cc1c(C)n(C(=O)CN2CCC(C)CC2)c2ccccc12 | inconclusive: 89.1 µM [inhibitor, single point] | – |
| CC(Oc1ccc(Cl)cc1Cl)C(=O)NCCc1cccs1 (stereo unspecified) | inconclusive: 50.1 µM [inhibitor, partial curve, poor fit] | – |
| CCOCCCNC(=S)NCc1cccc(COCc2ccccc2)c1 | inconclusive: 89.1 µM [inhibitor, single point] | – |
| Cc1ccc(NS(=O)(=O)c2ccc3nc(-c4ccccc4)[nH]c3c2)cc1Cl | inconclusive: 12.6 µM [inhibitor, partial curve, poor fit] | – |
| COc1c(Br)cc(/C=N/n2c(-c3ccccc3)n[nH]c2=S)c(O)c1Br | inconclusive: 5.62 µM [inhibitor, partial curve, poor fit] | – |
| Cc1c(CCl)cc(C(=O)O)cc1CCl | active: 5.62 µM | – |
| COc1ccc2ccccc2c1CNC(C)c1ccccc1 (stereo unspecified) | inconclusive: 0.316 µM [inhibitor, full curve, poor fit] | – |
| Clc1ccc(/C=N/Nc2nc(Cl)nc3ccccc23)cc1 | – | inactive: 0% |
| O=C(c1ccc(Cl)cc1)N1CC2(CCCN2CC2CCCCC2)Cc2ccccc21 (stereo unspecified) | inconclusive: 56.2 µM [inhibitor, partial curve, poor fit] | – |
| Cc1ccccc1[C@H]1C[C@@H](O)[C@@H](O)[C@@H]1NS(=O)(=O)c1ccc(C(F)(F)F)cc1 | inconclusive: 31.6 µM [inhibitor, full curve] | – |
| CSc1nn(CC(=O)Nc2ccc(C)cc2C)c(N)c1S(=O)(=O)c1ccc(Cl)cc1 | inconclusive: 2.82 µM [inhibitor, partial curve, poor fit] | – |

Entries above containing a cyano group (two):

| SMILES | Potency | activity change, negative = inhibition |
| --- | --- | --- |
| CC(=O)c1cc(CC#N)cs1 | inconclusive: 89.1 µM [inhibitor, partial curve, poor fit] | – |
| Cc1ccc(/C=C(/C#N)C(=O)NC(=O)Oc2ccccc2)cc1 | inconclusive: 7.08 µM [inhibitor, full curve, poor fit] | – |
